Laboratory results reported in article doi:10.1101/142505.
No constants are given. Whether binding was seen depends on the method and setting. Sequences can lack the tags named with a protein.

Target: T1, 6XHis-GlActin (Giardia lamblia), P51775
T1 chain: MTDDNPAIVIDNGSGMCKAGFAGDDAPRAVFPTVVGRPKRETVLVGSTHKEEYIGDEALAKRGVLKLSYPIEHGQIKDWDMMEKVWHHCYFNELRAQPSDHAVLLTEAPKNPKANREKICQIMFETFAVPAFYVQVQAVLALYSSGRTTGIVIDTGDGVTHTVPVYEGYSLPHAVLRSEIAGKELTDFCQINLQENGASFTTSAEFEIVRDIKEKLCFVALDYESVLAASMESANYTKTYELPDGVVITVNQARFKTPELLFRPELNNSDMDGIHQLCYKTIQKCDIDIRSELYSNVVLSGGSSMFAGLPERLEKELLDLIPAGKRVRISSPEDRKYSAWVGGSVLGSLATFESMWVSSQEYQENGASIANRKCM
Experiment: far-Western, overlay or dot blot
Settings: remark: other sources report otherwise

B1: recombinant wild type GST-fused Gl14-3-3, E2RU97 1-248 (protein)
chain: MAEAFTREDYVFMAQLNENAERYDEMVETMRKISGMEGELSDKERNLLSVAYKNVIGPRRAAWRIVSSIEAKEKGRQKPNAKRIEQIRVYRQKIEKELSDICNDILKLLQEQFVPRSTNADAKVFYYKMQGDYYRYLAEYSSGEDKEKIAGSALNAYNSAFEISQQLPPTHPIRLGLALNFSVFYYEILASPDRACELARKAFDAAITDLDKLTEESYKDSTLIMQLLRDNLNLWVTDSAGDDNAEEK
modifications: here or on the partner: a fraction phosphorylated on serine (anti-pSer blot); residues not stated
- binding: no binding (tested: 10 μg/ml)
